# Laboratory results: patent publication US12618081B2, “Brown marmorated and harlequin stink bug pheromone enzyme synthesis and uses thereof” (VIRGINIA TECH INTELLECTUAL PROPERTIES, INC., priority 2019, dated 2026)
# At least one read-out could not be matched to a standard name with certainty.
# Assay: Kinetic analysis of E. coli expressed MhTPS with [1-3H]-(E,E)-FPP
# Type: biochemical, Murgantia histrionica
# Settings: (E,E)-FPP as the substrate
# Protocol: Assays with heterologously expressed protein were performed in assay buffer (see above) in a total volume of 250 μl with partially purified protein, 1 mM DTT, and 50 µM allylic substrate [(E,E)-, (Z,E)- or (Z,Z)-FPP] and incubated at 30° C. for 1 h with a 250 μL hexane overlay. Assays were stopped on ice and compounds extracted by mixing (vortex) at maximum speed for . . . 15 sec. Phases were separated by centrifugation at 4000×g for 10 min and the hexane phase was removed and dried over MgSO4 One μl of liquid sample was injected in splitless mode and analyzed by GC-MS. For identification of the MhTPS product, assays were scaled up by incubating 1 mL protein in a 7 mL screw top test tube and the obtained hexane extract was used for further analysis. To determine enzyme kinetic parameters, assays were performed in a final volume of 50 μL with 0.3 μg partially purified, E. coli expressed MhTPS enzyme and increasing concentrations of [1-3H]-(E,E)-FPP (64 uCi mmol-1). Assays were incubated in triplicate at 30° C. for 5 min prior to extraction of the reaction product with 250 μl hexane. Quantification of the radioactive product were as described by Tholl et al. (Tholl et al., 2005). Calculation of Km and Vmax values was performed by rectangular hyperbolic regression analysis using the Hyperbolic Regression Analysis (HYPER 1.01) software (J. S. Easterby, University of Liverpool).
molecule,measurement,value
"MhTPS1: IDS-type sesquiterpene (sesquipiperitol) synthase of Murgantia histrionica, 385 aa, GenBank MG662378, SEQ ID NO: 1 (protein, Murgantia histrionica “harlequin bug” Terpene Synthase (TPS)) MVSIAAKSLPKLSGAVFGQFSRRKQLIQRHWLDTRTDQYYDVLRRIVVPECKNIASDVPEYPERIEKLLYYTNPAFSDAWNFTTELIYRTVADESHQTEENITKMYLIRATMDLLFTMSAVLDDISDRSEFRKGKKGWHMICQGGESTALYDGTQMGLFPLYLLKQYFKNDPGYSRLLETVVMTYIKLTIGQTIDVLGQFKKSPSMAEYKRINYYKAGQFVAAGSELAVIHAGITSQDLIDKTVEIFTIAGQIIQTWDDFNDYYSSSEQNGKLSCDFMNAGTTWVSAKAMEVFTPSQAVKFMECYGSDDQSKMKTVQELYDEIDMPKLYTEYVLENYNRCETLIKELPHDRLREACSSYMEWLVVRETPDEDSEHKVALCLNISG",kcat/Km,7.5±0.478e-6 s^−1 mM^−1
